Results are given in words; binding and its absence hold for the method and conditions named. Binding seen in cells or lysates may run through a third protein. Binding can be weak; no strength is given. For some assays here: Sequences can lack the tags named with a protein.

In experiment [1] the target is endogenous dPCIF1 (Drosophila (endogenous in embryos)). As to the kind of experiment: co-IP; endogenous proteins in wild-type embryos, western blot. In general terms: A western blot detects proteins with antibodies after separation by electrophoresis.
For experiment [2], the target named is Flag-tagged dPCIF1^S111A (Drosophila). As to the kind of experiment: co-IP; Myc-HIRA with Flag-tagged wild-type and mutant dPCIF1 in S2 cells.
Experiment [3] addresses Flag-tagged dPCIF1^S115A (Drosophila). Described as above.
Experiment [4] has as its target Flag-tagged wild-type dPCIF1 (Drosophila). The experiment is described as above.

B1: endogenous HIRA (protein, UniProt O17468 1-1047)
chain: MRLLKPAWVHHDDKQIFSVDIHKDCTKFATGGQGSDCGRVVIWNLLPVLSDKAEFDADVPKMLCQMDQHLACVNCVRWSQNGQNLASGSDDKLIMIWRKSAGSSGVFGTGGMQKNHESWKCFYTLRGHDGDVLDLAWSPNDVYLASCSIDNTVIIWDAQAFPHSVATLKGHTGLVKGVSWDPLGRFLASQSDDRSIKIWNTMNWSLSHTITEPFEECGGTTHILRLSWSPDGQYLVSAHAMNGGGPTAQIIEREGWKCDKDFVGHRKAVTCVRFHNSILSRQENDGSPSKPLQYCCLAVGSRDRSLSVWMTALQRPMVVIHELFNASILDLTWGPQECLLMACSVDGSIACLKFTEEELGKAISEEEQNAIIRKMYGKNYVNGLGKSAPVLEHPQRLLLPQGDKPTKFPLSNNNEANQRPISKQTETRTKDGKRRITPMFIPLHEDGPTSLSMNIVSSSGSSTTALTSCSAAIGTLPAAAPTESAATPLMPLEPLVSKIDLGRLDSRLKTQPASQRRQSLPFDPGQSNELLRTPRLEEHQSSTCSPSNLNVTATGKSEFVKAALDYRLHVSNGHLKTQHGMLAKVTASDSKEMLWEFYVGSPLVNLNLCEKYAMLCSLDGSMRLISMETGCPVFPAISLTSSAVHCAFSPDNSLVGVLTECGLLRIWDIAKKVVSLAAGCLELLNKHGTAAQFSVTNQGMPLIGFPSGNSYSYSTSLQSWLVLATKDAIMYHGIRGTLPRDMDQMQQKFPLLSMQASSQNYFSFTGSMELRHSESWQQCAKIRFIENQIKLCEALQSLDELQHWHKMLTFQLATHGSEKRMRVFLDDLLSMPEPGISQFVPKLELMQCVLDTLKPHSEWNRLHSEYTELLKECKSERQKDIFATPAPPQQKTASSAGSSPRSGEATGEEVTEKDGATAVAAAVVAGSRMAVTTGTSTTTTTTASSSLSSSGSSSSTSGSGSSSSSSSTSSLSVPQPAPSLSPEIQTLDSPTVCIDDEILSASSSLPPLDTSPVEVSPASTSGGAASTSPAASVAGSAPVSSSKTDQT
Turning to B1, the binding result in experiment [1] is listed as “binds”.

B2: Myc-HIRA (protein, UniProt O17468 1-1047)
chain: B1 chain
As for B2, the binding result in experiment [2], in experiment [3] and in experiment [4] was “binds” in each case.

B3: endogenous GAGA factor (GAF) (protein, UniProt Q08605 1-582)
chain: MSLPMNSLYSLTWGDYGTSLVSAIQLLRCHGDLVDCTLAAGGRSFPAHKIVLCAASPFLLDLLKNTPCKHPVVMLAGVNANDLEALLEFVYRGEVSVDHAQLPSLLQAAQCLNIQGLAPQTVTKDDYTTHSIQLQHMIPQHHDQDQLIATIATAPQQTVHAQVVEDIHHQGQILQATTQTNAAGQQQTIVTTDAAKHDQAVIQAFLPARKRKPRVKKMSPTAPKISKVEGMDTIMGTPTSSHGSGSVQQVLGENGAEGQLLSSTPIIKSEGQKVETIVTMDPNNMIPVTSANAATGEITPAQGATGSSGGNTSGVLSTPKAKRAKHPPGTEKPRSRSQSEQPATCPICYAVIRQSRNLRRHLELRHFAKPGVKKEKKTTSGKKSSSGSSGSGSGALSSSGSVPQVQTVQSLHTLQGVQVKKDPDAQQQQQQQQQQQQQQQQQAMTVSGATGGQVQQQVQQVQQQVQQQQQQQQQQQQQLQHHQIIDSSGNITTATTSAQAAAAAQQQAAGQQQQLVAQSDGSESGAPLSIAQVQTLQGHQIIGNLNQVNITDFQQQQPQQQQQQQQQQQQQQQQQQQTQQTL
B3: the binding entry in experiment [1] is recorded as “no binding”.
